The other results are listed elsewhere or left out.
System: T1, CTL2-GFP (C. trachomatis L2/434/Bu, GFP-expressing)
T1 construct: L2/434/Bu, GFP-expressing
Parameters: species or system HeLa; Intracellular C. trachomatis growth in HeLa cells, bulk GFP fluorescence relative to DMSO
Details: bulk GFP, single well; 28.5 h, 10 µM; inhibitor

Compared with COCCn1c(CO)nnc1[C@H]1C[C@@H](NC(=O)c2cc(F)ccc2F)C1 [CBK307032], Cc1nonc1CC(=O)N1C2CCC1CC(c1ccc(F)cc1)C2 (stereo not shown) [CBK283739] is lower in “% of control remaining” value: 182.519% for the first, 136.644% for the second.

Going from OC(COc1cccc2c1CCCC2)CN1CCC(O)(c2ccc(Cl)c(C(F)(F)F)c2)CC1 (stereo not shown) [CBK003581] to COc1ccc(S(=O)(=O)N(CC(=O)N2CCc3ccccc3C2)C2CCCCC2)cc1Cl [CBK268525], the “% of control remaining” value rises from 69.4637% to 95.1489%.

First: CCOC(=O)c1cnc2ccc(Br)cc2c1NCc1cccnc1 [CBK265030]
Second: COc1ccc2nc(Nc3nc(-c4cccnc4)cs3)sc2c1 [CBK287482]
The “% of control remaining” value of the first is lower: 100% for the first, 156.764% for the second.

Going from Cc1cccn2c(=O)cc(CN3CCCC(N4CCNC4=O)C3)nc12 (stereo not shown) [CBK304947] to Cc1cccn2c(=O)cc(CN3CCC(c4cn[nH]c4)CC3)nc12 [CBK305764], the “% of control remaining” value falls from 155.257% to 133.091%.

Compared with Cc1cc(Cl)cc(Cl)c1S(=O)(=O)Nc1nc2c(s1)CN(C(=O)N1CCOCC1)CC2 [CBK000931], Cc1cc(NS(=O)(=O)c2c(C)nn(C)c2Cl)n(C)n1 [CBK067245] is higher in “% of control remaining” value: 111.41% for the first, 120.985% for the second.

First: Cc1ccc2nc(C(=O)O)cc(OCC(=O)Nc3ccccc3F)c2c1 [CBK287255]
Second: CCOc1cc(/C=C2/NC(=O)N(c3ccccc3)C2=O)cc(Cl)c1OCc1cccc(C(=O)O)c1 [CBK265160]
The “% of control remaining” value of the first is higher: 137.509% for the first, 136.791% for the second.

Compared with CC(NC(=O)N1CCSCC1)c1cccc(N2CCCC2)c1 (stereo not shown) [CBK305230], O=C(NCc1c(Cl)cccc1Cl)N1CCN(c2ccccc2)CC1 [CBK155194] is lower in “% of control remaining” value: 114.021% for the first, 98.4265% for the second.

Compared with Cn1c(=O)c2c(nc(CN3CCCCC3)n2CCN2CCOCC2)n(C)c1=O [CBK269281], Cn1c(=O)c2c(nc(CN3CCN(C(=O)c4ccco4)CC3)n2Cc2ccccc2)n(C)c1=O [CBK269437] is lower in “% of control remaining” value: 150.348% for the first, 117.919% for the second.

Compared with O=C(O)CCN1CCCCC1 [CBK012168C], CCc1nc2ccc(C(=O)N(C)CCN(C)C)cn2c1N(C)C(=O)C1CCCCC1 [CBK145771] is higher in “% of control remaining” value: 116.765% for the first, 118.463% for the second.

First: CC(C)NC(=O)NC[C@H]1C[C@@H]2CCN1C[C@@H]2c1cc(-c2ccccc2)nn1C [CBK289097]
Second: CC1(C)[C@H](Cc2cc(COc3ccccc3)on2)C[C@@H]1NC1CCOCC1 [CBK289694]
The “% of control remaining” value of the first is lower: 116.174% for the first, 140.055% for the second.

First: O=C(N/N=C/c1ccc([N+](=O)[O-])cc1)c1ccccc1Cl [CBK261775]
Second: O=C(NCc1ccccc1)C1CCN(C(=O)Cc2c(F)cccc2Cl)CC1 [CBK297919]
The “% of control remaining” value of the first is lower: 106.907% for the first, 132.733% for the second.

Compared with O=S(=O)(N1CCCCC1)N1CCCN(S(=O)(=O)N2CCCCC2)CC1 [CBK268939], C(=C\c1ccccc1)/CN1CCN(C2CCN(CCc3ccccc3)CC2)CC1 [CBK261923] is lower in “% of control remaining” value: 141.156% for the first, 94.4148% for the second.

Compared with COc1ccc(C[C@@]23CCC(=O)C[C@@H]2N(C)CC3)cc1 [CBK009720], CC(=O)c1sc(NC(=O)Cc2ccc(C)cc2)nc1C [CBK287760] is higher in “% of control remaining” value: 113.983% for the first, 117.192% for the second.

Compared with Cc1ccc(-c2noc(CSc3nnc(-c4ccncc4)n3-c3ccc(C)cc3)n2)cc1 [CBK268879], Cc1ccn2cc(-c3cc4c(ccc5ccccc54)oc3=O)nc2c1 [CBK287313] is higher in “% of control remaining” value: 96.3295% for the first, 116.715% for the second.

Going from O=C(N[C@H]1CO[C@H]2[C@@H]1OC[C@@H]2n1nnnc1Oc1ccc(-n2ccnc2)cc1)c1ccco1 [CBK289486] to COc1cccc(-c2nnc(NC(=O)c3ccc4c(c3)OCCO4)o2)c1 [CBK287591], the “% of control remaining” value falls from 155.619% to 113.981%.

Compared with CC(C)CNc1nnc(-c2ccccc2[N+](=O)[O-])s1 [CBK076755], C/C(=N/Nc1ccc([N+](=O)[O-])cc1[N+](=O)[O-])C1CC1 [CBK260921] is lower in “% of control remaining” value: 123.414% for the first, 117.485% for the second.

Going from Cc1ccccc1C(NC(=O)C1CCN(C(=O)c2ccccc2)CC1)c1ccccn1 (stereo not shown) [CBK059720] to O=C1NCCC[C@@H]1NC(=O)[C@H]1CN(C(=O)c2ccccc2)CCN1C(=O)c1cccnc1 [CBK289634], the “% of control remaining” value rises from 118.122% to 131.137%.

First: CC(C)COc1ccc(C(CC(=O)O)C(=O)O)cc1 (stereo not shown) [CBK286759]
Second: CCNC(=O)NCc1ccc(F)cc1 [CBK115581]
The “% of control remaining” value of the first is higher: 118.213% for the first, 86.5254% for the second.

First: CN(C)CCNc1cc(-c2ccc3ccccc3c2)nc2ccccc12 [CBK278186B]
Second: CC(=O)OC(COc1ccc2ccccc2c1Br)Cn1cnc2ccccc21 (stereo not shown) [CBK266083]
The “% of control remaining” value of the first is lower: 16.7046% for the first, 86.6748% for the second.

Compared with NC(=O)c1ccc2[nH]c(-c3cscn3)nc2c1 [CBK017800], Cc1ccc(-c2ccc(/C=C/c3cc(C(F)(F)F)nc(=O)[nH]3)o2)cc1Cl [CBK018169] is lower in “% of control remaining” value: 122.831% for the first, 115.246% for the second.

Going from Cc1cc(C(=O)CSc2nccc(C(F)(F)F)n2)c(C)n1C1CC1 [CBK305238] to CC(=O)Nc1ccc(CNC(=O)c2ccc(C(F)(F)F)cn2)cc1 [CBK252121], the “% of control remaining” value rises from 121.819% to 129.902%.

Going from NS(=O)(=O)c1ccc(CCNC2=CC(=O)CC(c3ccco3)C2)cc1 (stereo not shown) [CBK265852] to CCn1cc(S(=O)(=O)Nc2ccc3c(ccn3C)c2)c(C)n1 [CBK282818], the “% of control remaining” value falls from 165.274% to 103.904%.

First: NCc1cnc2c(c1)CCC2 [CBK018584G]
Second: Cn1ccc(CN2CCOC(c3nc(C(C)(C)C)n[nH]3)C2)cc1=O (stereo not shown) [CBK304495]
The “% of control remaining” value of the first is lower: 99.8781% for the first, 130.099% for the second.

Going from C=CCNC1OC(CO)C(O)C(O)C1O (stereo not shown) [CBK261357] to O=c1[nH]c2ncc(-c3cccc(-c4ccccc4)c3)nc2n1Cc1ccccc1 [CBK064252], the “% of control remaining” value rises from 100% to 160.994%.

N#Cc1cccc(CN2CCCC3(CCN(C(=O)Cc4c[nH]c5ccccc45)C3)C2)c1 (stereo not shown) [CBK132032] was tested, and the “% of control remaining” value was 112.538%.

Source: article PMC12040169 (PLOS Biology, 2025)
